Results on five sequences are retold here after paper PMC7966797, “A cold shock protein promotes high-temperature microbial growth through binding to diverse RNA species”.

The data set concerns the target T1, CspL (Bacillus coagulans 2-6) (UniProt A0A0C5C4D7).
T1 sequence (looked up, limits assumed): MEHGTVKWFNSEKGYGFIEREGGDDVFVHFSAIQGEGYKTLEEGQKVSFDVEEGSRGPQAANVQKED
As to the kind of experiment: BLI. The settings on record: 20 ug/ml CspL, streptavidin sensor with 5'-biotin oligo, 20 mM PBS pH 7.4, 100 mM NaCl, 0.1% BSA, 0.02% Tween 20, CspL 20 ug/ml, recombinant protein, protein details: His, label: 5'-biotin.

The exact form of at least one protein or probe is not confirmed. At least one verdict was read from the data and is not stated in words by the source. Where a protein sequence is shown, tags need not be part of it.

GGAATT [6 nt ssDNA (ssDNA 8)]: the binding result (single-stranded DNA) is “binds”.

Turning to AAUGC [5 nt RNA (RNA 15)], the binding result is listed as “binds”. On the same count and under the same terms, in the case of “CGGGAGAGGCGGUUUGCGUAUUGU [24 nt RNA (RNA 1)]” it was “binds”. As for “GTACCCGGGGATCCTCTAGAGTCG [24 nt ssDNA (ssDNA 3)]”, the binding result (single-stranded DNA) is recorded as “binds”.

Regarding UAAUGA [6 nt RNA (RNA 10)], the binding result was “binds”.
